Assay type in all cases: cell-based, human
The test system of series [1] is BxPC-3 cancer cell line. Nature of the series: Cell proliferation resazurin assay, BxPC-3. The following applies: SI = IC50 MDCK / IC50 BxPC-3. How it is done:
(§1) The proliferation of HeLa, BxPC-3, RD, and MDCK cells was assessed using resazurin. Triplicate cultures of 1 × 10^4 cells in 100 μL of medium were incubated at 37 °C, 3% CO2, in 96-well plates. Compounds were dissolved in DMSO to form 1 × 10⁻^2 M solutions, then diluted with media and added to wells for a 24 h incubation. Following this, 20 μL of resazurin solution was added and incubated for 4 h. Absorbance was measured at 570 nm and 600 nm.
(§2) Percentage inhibition was calculated as follows:(2) I (%)=100−Abs570 nmsample−Abs600 nmsample /[…]−Abs600 nmcontrol ×100
(§3) The formula accounts for absorbance differences at 570 nm and 600 nm to determine cell viability.
(§4) The half maximal inhibitory concentration (IC50) indicated the effectiveness of the compounds on cell lines, as defined by FDA guidelines as the concentration needed for 50% inhibition in vitro. Toxicity was assessed via the median lethal concentration (LC50), the concentration causing death in 50% of juvenile daphnids, calculated using a dose–response equation via least squares fitting. All data are presented as mean ± standard deviation (SD). Statistical analyses were conducted with specialized software.

The test system of series [2] is RD cancer cell line. Kind of series: Cell proliferation resazurin assay, RD. The following applies: SI = IC50 MDCK / IC50 RD. How it is done:
as §1, §2, §3, §4
Background: Alamar Blue is a resazurin reagent that responds to reducing activity.

The subject of series [3] is HeLa cancer cell line. Kind of series: Cell proliferation resazurin assay, HeLa. The following applies: SI = IC50 MDCK / IC50 HeLa. How it is done:
as §1, §2, §3, §4

For series [4], the system named is HL-60 cancer cell line. Nature of the series: Antiproliferative activity, HL-60. As to conditions: SI = IC50 MDCK / IC50 HL-60.
Series [5] relates to LNCaP cancer cell line. Nature of the series: Cell proliferation MTT assay, LNCaP. As to conditions: SI = IC50 MDCK / IC50 LNCaP. The procedure: (§5) The MTT assay, a colorimetric method, quantifies viable cells to evaluate cytotoxic effects on LNCaP, MCF-7, HepG-2, and K-562 cell lines. It measures the conversion of MTT to insoluble formazan by mitochondrial succinate dehydrogenase in active cells, reflecting cell viability. Compounds were dissolved in saline and DMSO (≤0.1%) and tested at 0.1, 1, and 10 μM concentrations, following Mosmann’s method.
(§6) Suspension cells were centrifuged, and adherent cells were trypsinized then diluted to 5 × 10⁴ cells/mL in RPMI 1640 with 10% fetal bovine serum. Subsequently, 5 × 10^3 cells in 100 μL were plated in 96-well plates and incubated for attachment. After adding compounds, cells were incubated for 24 h at 37 °C and 3% CO2. MTT reagent was introduced, and cells were monitored for formazan presence under a microscope.
(§7) Upon observing purple precipitate, detergent reagent was added, and plates were kept in the dark for 4 h. Absorbance was measured at 540 nm using a BioTek reader (Agilent, Santa Clara, CA, USA). Results, indicating percent inhibition, were calculated using the following formula:(3) I (%)=100−Abs540 nmsample /Abs540 nmcontrol ×100
(§8) IC50 values were determined as a measure of compound efficacy on cancer cell proliferation.
(Tetrazolium assays rely on reduction of a dye to a coloured formazan, in cell work by metabolically active cells.)

Series [6] has as its system MCF-7 cancer cell line. Kind of series: Cell proliferation MTT assay, MCF-7. As to conditions: SI = IC50 MDCK / IC50 MCF-7. The procedure: as §5, §6, §7, §8
Series [7] relates to HepG-2 cancer cell line. Nature of the series: Cell proliferation MTT assay, HepG-2. As to conditions: SI = IC50 MDCK / IC50 HepG-2. The procedure: as §5, §6, §7, §8
Series [8] has as its system K-562 cancer cell line. Kind of series: Cell proliferation MTT assay, K-562. As to conditions: SI = IC50 MDCK / IC50 K-562. How it is done: as §5, §6, §7, §8

On to `COc1ccccc1NC(=NN=Cc1ccccn1)[S][Cu][O][N+](=O)[O-]` [C2, [Cu(L^1)NO3]], for which, in series [1], the “BxPc-3 SI” value was found to be 6. The “RD SI” value in series [2] came out at 6.0. Also, the “HeLa SI” value in series [3] was 0.8. Also, the “HL-60 SI” value in series [4] came to 20. Besides, the “LNCaP SI” value in series [5] amounted to 1.3. In series [6], the “MCF-7 SI” value was determined as 6.0. For the same molecule, in series [7], the “HepG-2 SI” value was 1.5. Moreover, the “K-562 SI” value in series [8] is given as 1.2.
Take `COc1ccc(NC(=NN=Cc2ccccn2)[S][Cu][Cl])cc1` [C5, [Cu(L^3)Cl]]: the “BxPc-3 SI” value in series [1] came to 3. Besides, the “RD SI” value in series [2] is on record as 1.4. For the same molecule, the “HeLa SI” value in series [3] is on record as 1.0.
Turning to `COc1ccccc1NC(=NN=Cc1ccccn1)[S][Cu][Cl]` [C1, [Cu(L^1)Cl]], the “BxPc-3 SI” value in series [1] worked out at 3. Moreover, the “RD SI” value in series [2] was 3.0. For the same molecule, the “HeLa SI” value in series [3] was 0.4. Further, the “HL-60 SI” value in series [4] turned out to be 0.010. Besides, the “MCF-7 SI” value in series [6] worked out at 0.003. Moreover, the “K-562 SI” value in series [8] is 0.005.
For `COc1cccc(NC(=NN=C(C)c2ccccn2)[S][Cu][O][N+](=O)[O-])c1` [C7, [Cu(L^4)NO3]], the “BxPc-3 SI” value in series [1] was 5. The “RD SI” value in series [2] stood at 1.8. Also, the “HeLa SI” value in series [3] is listed as 9.0.
For `COc1cccc(NC(=NN=Cc2ccccn2)[S][Cu][O][N+](=O)[O-])c1` [C4, [Cu(L^2)NO3]], the “BxPc-3 SI” value in series [1] is on record as 13. Moreover, the “RD SI” value in series [2] is given as 13. The “HeLa SI” value in series [3] worked out at 13.0.
On to `COc1ccc(NC(=NN=Cc2ccccn2)[S][Cu][O][N+](=O)[O-])cc1` [C6, [Cu(L^3)NO3]], for which the “RD SI” value in series [2] is given as 1.8. Besides, in series [3], the “HeLa SI” value came to 1.9. Moreover, the “HL-60 SI” value in series [4] is reported as 70. For the same molecule, in series [6], the “MCF-7 SI” value stood at 3.5. For the same molecule, the “HepG-2 SI” value in series [7] was 3.5. The “K-562 SI” value in series [8] is listed as 70.
`[NH2][Pt]([NH2])([Cl])[Cl]` [CDDP, cisplatin, reference compound]: in series [1], the “BxPc-3 SI” value came to 0.1. Besides, the “RD SI” value in series [2] is 0.3. In addition, the “HeLa SI” value in series [3] was 0.04.
With `COc1cccc2c1C(=O)c1c(O)c3c(c(O)c1C2=O)C[C@@](O)(C(=O)CO)C[C@@H]3O[C@H]1C[C@H](N)[C@H](O)[C@H](C)O1` [DOXO, doxorubicin, reference compound], the “BxPc-3 SI” value in series [1] is given as 1.8. Besides, in series [2], the “RD SI” value is recorded as 0.7. In series [3], the “HeLa SI” value is 1.7. Also, in series [4], the “HL-60 SI” value was found to be 11. In series [6], the “MCF-7 SI” value was found to be 0.80. Moreover, the “HepG-2 SI” value in series [7] was 3.9. Also, in series [8], the “K-562 SI” value is on record as 27.
Turning to `COc1cccc(NC(=NN=C(C)c2ccccn2)[S][Cu][Cl])c1` [C8, [Cu(L^4)Cl]], in series [1], the “BxPc-3 SI” value was determined as 11. Moreover, the “RD SI” value in series [2] is 5.5. Besides, the “HeLa SI” value in series [3] is reported as 11.0.

The values above are taken from PMC11676775, “Novel Copper(II) Coordination Compounds Containing Pyridine Derivatives of N^4-Methoxyphenyl-Thiosemicarbazones with Selective Anticancer Activity” (Molecules, 2024).
